Measurements reported in PubChem BioAssay AID1259254 (NCATS, 2017).
Shown is one part, drawn at random, of about 59,000 reagents. Of all reagents, about 1,550 (2.6%) got an active call. 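G2 share is only a proxy for re-replication; each gene was hit by three separate siRNAs, and active genes were retested.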 The raw values are shown without normalisation. Reagents against one gene are numbered here. Not given: the amount of reagent.

- Assay: 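Gene knock-downs that lead to re-replication, shown by excess G2 DNA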 (primary screen)
- Cell system: human HCT116 colorectal cancer cells
- Reagents: single siRNA against human genes
- Duration: 3 days
- Measurement: 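Imaged Hoechst DNA stain sorts each cell into a cycle phase by DNA amount; per plate, G2 fraction set to 0% for non-targeting and 100% for GMNN siRNA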
- Scale: G2 robust z-score and G2 cells, % of GMNN control: higher = more G2 cells, more excess DNA replication; raw share of cells in G2: higher = larger share of cells with G2 DNA content
- Rule for the call: 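Active siRNAs have a G2 robust z of 5 or more median absolute deviations over the median, which in these data means about 38% or higher of GMNN control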

target | reagent no. | G2 robust z-score | G2 cells, % of GMNN control | raw share of cells in G2 (%) | Outcome
ARHGAP30 (GeneID 257106) | 1 | 5.5 | 41.7 | 19.9 | active
ARHGAP30 (GeneID 257106) | 2 | -0.855 | -3.05 | 3.42 | inactive
ARHGAP30 (GeneID 257106) | 3 | 2.51 | 20.7 | 15.8 | inactive
SPATA9 (GeneID 83890) | 1 | -0.89 | -3.29 | 1.41 | inactive
SPATA9 (GeneID 83890) | 2 | -0.427 | -0.0372 | 4.1 | inactive
SPATA9 (GeneID 83890) | 3 | 1.15 | 11.1 | 6.75 | inactive
OR7D4 (GeneID 125958) | 1 | -0.462 | -0.283 | 1.74 | inactive
OR7D4 (GeneID 125958) | 2 | 0.195 | 4.34 | 5.83 | inactive
OR7D4 (GeneID 125958) | 3 | -0.673 | -1.77 | 2.8 | inactive
MLLT11 (GeneID 10962) | 1 | 2.64 | 21.5 | 13.4 | inactive
MLLT11 (GeneID 10962) | 2 | 1.82 | 15.7 | 10.6 | inactive
MLLT11 (GeneID 10962) | 3 | -0.791 | -2.6 | 2.2 | inactive
CNKSR2 (GeneID 22866) | 1 | 0.035 | 3.21 | 4.97 | inactive
CNKSR2 (GeneID 22866) | 2 | -0.2 | 1.56 | 7 | inactive
CNKSR2 (GeneID 22866) | 3 | -1.03 | -4.29 | 2.72 | inactive
BSN (GeneID 8927) | 1 | 0.0896 | 3.6 | 6 | inactive
BSN (GeneID 8927) | 2 | -1.31 | -6.22 | 3.08 | inactive
BSN (GeneID 8927) | 3 | 0.0572 | 3.37 | 6.07 | inactive
QPCTL (GeneID 54814) | 1 | 1.91 | 16.4 | 13.4 | inactive
QPCTL (GeneID 54814) | 2 | -0.0882 | 2.35 | 5.11 | inactive
QPCTL (GeneID 54814) | 3 | -0.472 | -0.353 | 3.67 | inactive
BAIAP3 (GeneID 8938) | 1 | 0.345 | 5.4 | 7.52 | inactive
BAIAP3 (GeneID 8938) | 2 | 2.89 | 23.3 | 13.1 | inactive
BAIAP3 (GeneID 8938) | 3 | 1.99 | 16.9 | 9.34 | inactive
TMC2 (GeneID 117532) | 1 | -0.385 | 0.255 | 4.19 | inactive
TMC2 (GeneID 117532) | 2 | -0.387 | 0.243 | 3.4 | inactive
TMC2 (GeneID 117532) | 3 | 0.48 | 6.35 | 3.67 | inactive
ONECUT3 (GeneID 390874) | 1 | -0.617 | -1.37 | 4.42 | inactive
ONECUT3 (GeneID 390874) | 2 | 0.413 | 5.87 | 8.44 | inactive
ONECUT3 (GeneID 390874) | 3 | 2.09 | 17.6 | 10.7 | inactive

Look-ups from the list:
Entry of BAIAP3 (GeneID 8938) #3 under “Outcome”: inactive
Entry of OR7D4 (GeneID 125958) #3 under “raw share of cells in G2 (%)”: 2.8
Under “G2 robust z-score”, QPCTL (GeneID 54814) #3 has -0.472
Value of SPATA9 (GeneID 83890) #2 under “Outcome”: inactive
Result for MLLT11 (GeneID 10962) #3 in “Outcome”: inactive

The list goes on:
target | reagent no. | G2 robust z-score | G2 cells, % of GMNN control | raw share of cells in G2 (%) | Outcome
DDA1 (GeneID 79016) | 1 | -0.793 | -2.61 | 3.44 | inactive
DDA1 (GeneID 79016) | 2 | -0.174 | 1.74 | 5.39 | inactive
DDA1 (GeneID 79016) | 3 | 0.695 | 7.86 | 4.77 | inactive
SFTPA1 (GeneID 653509) | 1 | 6.35 | 47.6 | 16.9 | active
SFTPA1 (GeneID 653509) | 2 | -0.208 | 1.51 | 3.98 | inactive
SFTPA1 (GeneID 653509) | 3 | -0.00231 | 2.95 | 4.26 | inactive
FGR (GeneID 2268) | 1 | -1.4 | -6.88 | 3.34 | inactive
FGR (GeneID 2268) | 2 | 3.36 | 26.6 | 14.4 | inactive
FGR (GeneID 2268) | 3 | -0.396 | 0.178 | 4.09 | inactive
CELSR3 (GeneID 1951) | 1 | 0.899 | 9.29 | 9.16 | inactive
CELSR3 (GeneID 1951) | 2 | 0.497 | 6.46 | 6.78 | inactive
CELSR3 (GeneID 1951) | 3 | 0.569 | 6.97 | 5.41 | inactive
CAPN2 (GeneID 824) | 1 | -0.302 | 0.841 | 5.85 | inactive
CAPN2 (GeneID 824) | 2 | 0.35 | 5.43 | 6.83 | inactive
CAPN2 (GeneID 824) | 3 | 0.0102 | 3.04 | 5.04 | inactive
UBASH3A (GeneID 53347) | 1 | 1.63 | 14.4 | 9.56 | inactive
UBASH3A (GeneID 53347) | 2 | 3.23 | 25.7 | 13.6 | inactive
UBASH3A (GeneID 53347) | 3 | 2.09 | 17.7 | 14 | inactive
PCDHGC5 (GeneID 56097) | 1 | -0.624 | -1.42 | 5.81 | inactive
PCDHGC5 (GeneID 56097) | 2 | -0.83 | -2.87 | 3.41 | inactive
PCDHGC5 (GeneID 56097) | 3 | 1.19 | 11.3 | 9.06 | inactive
ARHGEF11 (GeneID 9826) | 1 | -0.423 | -0.00785 | 3.2 | inactive
ARHGEF11 (GeneID 9826) | 2 | -0.807 | -2.71 | 4.18 | inactive
ARHGEF11 (GeneID 9826) | 3 | 1.03 | 10.2 | 8.9 | inactive
PBDC1 (GeneID 51260) | 1 | 2.94 | 23.6 | 12.9 | inactive
PBDC1 (GeneID 51260) | 2 | -0.119 | 2.13 | 5.35 | inactive
PBDC1 (GeneID 51260) | 3 | -0.171 | 1.76 | 3.81 | inactive
EHHADH (GeneID 1962) | 1 | -0.703 | -1.98 | 4.52 | inactive
EHHADH (GeneID 1962) | 2 | -0.292 | 0.915 | 5.61 | inactive
EHHADH (GeneID 1962) | 3 | -0.712 | -2.04 | 2.93 | inactive
B3GAT1 (GeneID 27087) | 1 | -0.413 | 0.0588 | 4.01 | inactive
B3GAT1 (GeneID 27087) | 2 | 0.212 | 4.46 | 5.67 | inactive
B3GAT1 (GeneID 27087) | 3 | -0.295 | 0.892 | 6.57 | inactive
NAE1 (GeneID 8883) | 1 | -0.107 | 2.21 | 5.5 | inactive
NAE1 (GeneID 8883) | 2 | 0.474 | 6.3 | 7.48 | inactive
NAE1 (GeneID 8883) | 3 | 3.52 | 27.7 | 17.1 | inactive
DAD1 (GeneID 1603) | 1 | -1.34 | -6.48 | 1.86 | inactive
DAD1 (GeneID 1603) | 2 | -0.656 | -1.65 | 4.39 | inactive
DAD1 (GeneID 1603) | 3 | -0.39 | 0.221 | 5.04 | inactive
MPC1 (GeneID 51660) | 1 | 1.92 | 16.4 | 8.63 | inactive
MPC1 (GeneID 51660) | 2 | 1.64 | 14.5 | 8.8 | inactive
MPC1 (GeneID 51660) | 3 | -0.623 | -1.42 | 3.67 | inactive
IRF4 (GeneID 3662) | 1 | 2.56 | 21 | 11.9 | inactive
IRF4 (GeneID 3662) | 2 | -0.933 | -3.59 | 3.74 | inactive
IRF4 (GeneID 3662) | 3 | -0.0162 | 2.85 | 6.77 | inactive
LINC01559 (GeneID 283422) | 1 | 0.108 | 3.73 | 4.4 | inactive
LINC01559 (GeneID 283422) | 2 | -0.0573 | 2.56 | 4.58 | inactive
LINC01559 (GeneID 283422) | 3 | 1.25 | 11.8 | 7.6 | inactive
INSL4 (GeneID 3641) | 1 | -0.956 | -3.76 | 3.68 | inactive
INSL4 (GeneID 3641) | 2 | -0.131 | 2.05 | 6.46 | inactive
INSL4 (GeneID 3641) | 3 | 2.29 | 19.1 | 11.2 | inactive
CENPT (GeneID 80152) | 1 | 3.62 | 28.4 | 10.2 | inactive
CENPT (GeneID 80152) | 2 | 0.616 | 7.3 | 7.48 | inactive
CENPT (GeneID 80152) | 3 | 0.92 | 9.44 | 8.43 | inactive
ERICH3 (GeneID 127254) | 1 | 0.404 | 5.81 | 6.36 | inactive
ERICH3 (GeneID 127254) | 2 | 0.719 | 8.02 | 5.65 | inactive
ERICH3 (GeneID 127254) | 3 | -0.88 | -3.23 | 1.41 | inactive
